Test results taken from patent US9999760B2, “DVDMS sensitizer for cancer sonodynamic therapy” (priority 2015, dated 2018).
At least one structure is not confirmed: it was looked up by name or label, or the drawing left a doubt.

Experiment: Spectral characteristics (absorption and fluorescence emission spectra)
Type: physicochemical
Method: Two kinds of leukemia cells (K562, U937) as main tumor cell models and cells (peripheral blood mononuclear cells, spleen lymphocytes) separated from healthy ICR mice as normal cell models were used. The multivolume spectrophotometer system and fluorescence spectrophotometer were used to determine the spectral characteristics of DVDMS. The uptake of DVDMS by tumor cells and normal cells was measured by flow cytometry. The MTT assay was used to examine the cytotoxicity and sonotoxicity of DVDMS.

C=Cc1c(C)c2cc3nc(cc4[nH]c(cc5nc(cc1[nH]2)C(C)=C5C(C)OC(C)C1=C(C)c2cc5[nH]c(cc6nc(cc7[nH]c(cc1n2)c(C)c7CCC(=O)[O-])C(CCC(=O)[O-])=C6C)c(C)c5C=C)c(C)c4CCC(=O)[O-])C(CCC(=O)[O-])=C3C.[Na+].[Na+].[Na+].[Na+] (stereo not shown) [DVDMS]
absorption spectra, distinct peaks: 359, 514, 548, 580, and 631 nm
